Results taken from article PMC9810599.
No constants are given. Whether binding was seen depends on the method and setting. Binding seen in cells or lysates may run through a third protein. These calls come from enrichment with a bait or labelling near it, and not all partners need be listed.

The chains behind the UniProt entries cited, without tags or fusion partners. Residues count along the entry.
UniProt P0CS90, residues 24-654: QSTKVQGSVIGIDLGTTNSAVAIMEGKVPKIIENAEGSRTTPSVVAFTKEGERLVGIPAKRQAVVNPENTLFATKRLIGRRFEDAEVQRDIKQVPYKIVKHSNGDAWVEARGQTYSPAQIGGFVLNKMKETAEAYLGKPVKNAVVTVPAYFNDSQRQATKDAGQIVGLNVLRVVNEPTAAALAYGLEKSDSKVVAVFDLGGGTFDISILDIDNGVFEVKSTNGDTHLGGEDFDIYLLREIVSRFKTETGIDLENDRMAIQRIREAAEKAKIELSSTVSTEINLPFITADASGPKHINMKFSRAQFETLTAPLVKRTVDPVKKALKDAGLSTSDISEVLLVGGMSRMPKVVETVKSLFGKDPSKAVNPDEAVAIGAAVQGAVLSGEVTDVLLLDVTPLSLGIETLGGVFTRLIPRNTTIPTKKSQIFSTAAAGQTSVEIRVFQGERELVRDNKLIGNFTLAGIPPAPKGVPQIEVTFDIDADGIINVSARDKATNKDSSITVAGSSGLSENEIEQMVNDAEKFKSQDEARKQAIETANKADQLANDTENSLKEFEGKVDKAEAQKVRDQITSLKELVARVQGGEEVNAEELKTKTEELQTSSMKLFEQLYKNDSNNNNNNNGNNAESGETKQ
UniProt P07251, residues 36-545: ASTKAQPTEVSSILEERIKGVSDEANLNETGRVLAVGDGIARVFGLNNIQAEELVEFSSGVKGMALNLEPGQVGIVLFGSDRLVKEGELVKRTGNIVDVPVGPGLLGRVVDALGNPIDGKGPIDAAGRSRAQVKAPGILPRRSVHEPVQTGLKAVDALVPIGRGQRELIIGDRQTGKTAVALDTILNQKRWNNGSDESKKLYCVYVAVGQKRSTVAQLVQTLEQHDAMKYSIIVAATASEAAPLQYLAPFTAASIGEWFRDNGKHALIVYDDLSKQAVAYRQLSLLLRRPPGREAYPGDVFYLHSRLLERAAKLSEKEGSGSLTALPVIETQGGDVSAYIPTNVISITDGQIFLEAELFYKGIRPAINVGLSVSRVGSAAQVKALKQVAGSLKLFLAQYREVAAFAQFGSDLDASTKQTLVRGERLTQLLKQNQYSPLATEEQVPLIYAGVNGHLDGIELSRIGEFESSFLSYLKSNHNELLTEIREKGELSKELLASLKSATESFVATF
UniProt P00830, residues 34-511: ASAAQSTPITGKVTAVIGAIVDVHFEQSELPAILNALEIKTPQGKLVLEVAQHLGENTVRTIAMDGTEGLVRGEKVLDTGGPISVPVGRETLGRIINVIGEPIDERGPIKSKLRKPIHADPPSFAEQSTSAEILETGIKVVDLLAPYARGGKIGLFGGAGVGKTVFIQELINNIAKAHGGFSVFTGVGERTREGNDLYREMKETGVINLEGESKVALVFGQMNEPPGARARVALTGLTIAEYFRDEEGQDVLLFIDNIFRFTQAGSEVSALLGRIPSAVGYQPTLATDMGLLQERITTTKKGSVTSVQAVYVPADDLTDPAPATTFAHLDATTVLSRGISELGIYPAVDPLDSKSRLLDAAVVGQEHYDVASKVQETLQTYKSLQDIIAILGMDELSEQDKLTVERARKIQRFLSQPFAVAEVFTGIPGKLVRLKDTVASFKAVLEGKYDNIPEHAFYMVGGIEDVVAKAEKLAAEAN

Target: His-tagged mitochondrial Hsp70 (mtHsp70His) (S. cerevisiae) (UniProt P0CS90)
Test: affinity purification with mass spectrometry; mtHsp70His purified on Ni-NTA agarose from digitonin-lysed mitochondria of SILAC-labelled ρ+ and ρ0 cells, in the absence of ATP; elution fractions mixed; ratios ρ0 versus ρ+

Substance | binding
Atp1 (subunit α of the ATP synthase) (from UniProt P07251 36-545) | binds
Atp2 (subunit β of the ATP synthase) (from UniProt P00830 34-511) | binds
